# The hits were mostly taken out for another list; the other results follow. Inconclusive results are not listed. Activity calls are given as the source filed them. The call rests on the fitted dose curve; in most records, active means well fitted inhibition curve with a large enough effect; inconclusive means small, poorly fitted or top-dose-only effect; inactive means no such curve, though single readings can be large or run the other way.
# Chains of the proteins cited; added tags and fusions are not shown. Lines headed by an entry give the natural chain unless they say otherwise; changes in a name come on top.
# UniProt Q99714: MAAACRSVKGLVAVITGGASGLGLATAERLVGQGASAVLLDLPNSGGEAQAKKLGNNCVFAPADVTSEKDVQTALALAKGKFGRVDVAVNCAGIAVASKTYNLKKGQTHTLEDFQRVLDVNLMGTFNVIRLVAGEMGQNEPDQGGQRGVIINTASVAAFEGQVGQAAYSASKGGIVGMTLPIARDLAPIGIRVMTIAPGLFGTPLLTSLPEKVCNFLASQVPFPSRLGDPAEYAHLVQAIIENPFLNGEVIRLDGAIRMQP
# Target: 3-hydroxyacyl-CoA dehydrogenase type-2 (Homo sapiens) (UniProt Q99714)
# Experiment: qHTS Assay for Inhibitors of HADH2 (Hydroxyacyl-Coenzyme A Dehydrogenase, Type II); further: nearly all actives have a fitted effect of over 60% in size
# Conditions: recombinant HADH2, NADH fluorescence, beta-hydroxybutyryl-CoA
# From the text: Assay Overview: NIH Molecular Libraries Screening Centers Network [MLSCN] NIH Chemical Genomics Center [NCGC] Structural Genomics Consortium [SGC] Grant Number: None HADH2: Hydroxyacyl-Coenzyme A dehydrogenase, type II, was supplied by researchers at the Structural Genomics Consortium, Oxford University lab (PI Udo Oppermann). The mitochondrial enzyme 17-hydroxysteroid dehydrogenase type 10 (HSD17-10) previously classified as type II hydroxyacyl-CoA dehydrogenase (HADH2) catalyzes the NAD+ dependent oxidation of a variety of substrates including acyl-CoAs, androgens and neurosteroids as well as bile acids(Shafqat N, Marschall HU, Filling C, et al. Biochemical Journal. 2003;376(Pt 1):49-60). […] An increase in the fluorescence intensity due to conversion of NAD+ to NADH was used to measure the enzyme activity.
# Assay Protocol: Buffer: 100 mM Tris-HCl pH 9.0, containing 0.01 % Tween-20. […] The plates were immediately transferred to and read every 30 seconds for 4 min on ViewLux High-throughput CCD imager (Perkin-Elmer) using 360 nm excitation and 450 nm emission fluorescence protocol. The fluorescence intensity difference between the last and the first time points was used to compute reaction progress.
# On the % scale 0 is the no-effect control and ±100 the full control effect.
compound,measurement,setting,value
CN1[C@@H]2CC[C@H]1CC(OC(=O)[C@@H](O)c1ccccc1)C2 (some centres not stated),"activity change, negative = inhibition",at 11.4 µM (top of the series),inactive: 3.97%
same,"activity change, negative = inhibition",at 25.6 µM (top of the series),inactive: -6.34%

# Source: PubChem BioAssay AID886 (National Center for Advancing Translational Sciences (NCATS), 2007)
